Assay results from the supplement of paper PMC10849652.
This is one part of the list.

Sequences of proteins named here, by UniProt entry; tags and fusion partners are left off. A change or cut given only in a name is not applied to a line headed by its entry.
UniProt Q9Y2K7: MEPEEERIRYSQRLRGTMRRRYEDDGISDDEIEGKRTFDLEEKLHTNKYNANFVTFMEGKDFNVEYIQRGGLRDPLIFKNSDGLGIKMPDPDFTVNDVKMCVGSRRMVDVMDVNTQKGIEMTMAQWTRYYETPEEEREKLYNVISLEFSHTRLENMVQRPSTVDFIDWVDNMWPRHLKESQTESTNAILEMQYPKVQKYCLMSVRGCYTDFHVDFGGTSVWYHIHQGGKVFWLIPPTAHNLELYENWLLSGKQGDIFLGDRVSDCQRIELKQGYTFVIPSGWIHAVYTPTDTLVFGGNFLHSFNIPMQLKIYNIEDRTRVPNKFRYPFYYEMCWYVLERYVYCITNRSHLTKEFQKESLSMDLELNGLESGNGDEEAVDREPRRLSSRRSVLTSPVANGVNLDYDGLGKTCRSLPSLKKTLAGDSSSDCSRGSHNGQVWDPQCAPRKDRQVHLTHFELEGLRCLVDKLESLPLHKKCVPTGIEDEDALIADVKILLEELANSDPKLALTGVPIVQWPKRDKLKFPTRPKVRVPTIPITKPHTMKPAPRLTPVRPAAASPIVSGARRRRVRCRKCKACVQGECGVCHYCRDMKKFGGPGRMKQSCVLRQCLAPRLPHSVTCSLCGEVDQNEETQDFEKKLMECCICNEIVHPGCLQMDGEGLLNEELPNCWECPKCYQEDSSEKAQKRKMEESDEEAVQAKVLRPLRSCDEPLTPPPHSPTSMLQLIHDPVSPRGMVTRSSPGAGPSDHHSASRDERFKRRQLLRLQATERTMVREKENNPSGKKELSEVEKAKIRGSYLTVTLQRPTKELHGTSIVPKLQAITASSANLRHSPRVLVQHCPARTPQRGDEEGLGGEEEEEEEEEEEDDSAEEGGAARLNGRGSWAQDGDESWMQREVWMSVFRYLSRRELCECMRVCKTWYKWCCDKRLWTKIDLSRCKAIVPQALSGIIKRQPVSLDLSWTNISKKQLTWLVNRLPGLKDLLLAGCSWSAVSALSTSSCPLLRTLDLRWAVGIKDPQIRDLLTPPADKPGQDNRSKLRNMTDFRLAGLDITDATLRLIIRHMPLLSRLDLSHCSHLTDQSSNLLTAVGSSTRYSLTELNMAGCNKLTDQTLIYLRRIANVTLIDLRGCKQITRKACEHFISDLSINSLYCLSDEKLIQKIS
UniProt Q06136: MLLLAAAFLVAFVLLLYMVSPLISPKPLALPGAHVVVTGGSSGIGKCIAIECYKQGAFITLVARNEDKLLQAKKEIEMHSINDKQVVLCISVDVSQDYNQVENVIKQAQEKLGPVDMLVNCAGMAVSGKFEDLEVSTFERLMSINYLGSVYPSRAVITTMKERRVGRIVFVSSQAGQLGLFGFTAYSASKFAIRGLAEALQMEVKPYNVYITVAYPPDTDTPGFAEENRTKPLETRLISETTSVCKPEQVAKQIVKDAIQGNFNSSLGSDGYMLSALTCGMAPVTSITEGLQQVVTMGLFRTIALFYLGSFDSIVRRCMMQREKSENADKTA
UniProt Q96AT1: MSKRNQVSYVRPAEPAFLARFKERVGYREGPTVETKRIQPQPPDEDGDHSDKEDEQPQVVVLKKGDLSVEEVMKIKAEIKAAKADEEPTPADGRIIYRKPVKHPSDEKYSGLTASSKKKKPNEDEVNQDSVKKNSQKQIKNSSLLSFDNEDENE
UniProt Q96SI1: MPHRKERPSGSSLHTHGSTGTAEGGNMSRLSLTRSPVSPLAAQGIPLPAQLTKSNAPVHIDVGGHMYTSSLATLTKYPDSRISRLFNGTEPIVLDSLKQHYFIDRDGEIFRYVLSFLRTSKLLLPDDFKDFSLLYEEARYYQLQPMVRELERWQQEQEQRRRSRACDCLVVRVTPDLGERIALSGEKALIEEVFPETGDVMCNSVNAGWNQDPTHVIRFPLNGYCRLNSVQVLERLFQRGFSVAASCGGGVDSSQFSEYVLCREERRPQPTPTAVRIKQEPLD
UniProt Q9H910: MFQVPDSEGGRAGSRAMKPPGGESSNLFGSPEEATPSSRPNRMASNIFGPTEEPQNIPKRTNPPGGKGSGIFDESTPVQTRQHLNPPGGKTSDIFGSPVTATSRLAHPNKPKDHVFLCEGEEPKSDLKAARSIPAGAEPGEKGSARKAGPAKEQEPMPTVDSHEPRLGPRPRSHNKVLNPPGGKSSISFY
UniProt O75449: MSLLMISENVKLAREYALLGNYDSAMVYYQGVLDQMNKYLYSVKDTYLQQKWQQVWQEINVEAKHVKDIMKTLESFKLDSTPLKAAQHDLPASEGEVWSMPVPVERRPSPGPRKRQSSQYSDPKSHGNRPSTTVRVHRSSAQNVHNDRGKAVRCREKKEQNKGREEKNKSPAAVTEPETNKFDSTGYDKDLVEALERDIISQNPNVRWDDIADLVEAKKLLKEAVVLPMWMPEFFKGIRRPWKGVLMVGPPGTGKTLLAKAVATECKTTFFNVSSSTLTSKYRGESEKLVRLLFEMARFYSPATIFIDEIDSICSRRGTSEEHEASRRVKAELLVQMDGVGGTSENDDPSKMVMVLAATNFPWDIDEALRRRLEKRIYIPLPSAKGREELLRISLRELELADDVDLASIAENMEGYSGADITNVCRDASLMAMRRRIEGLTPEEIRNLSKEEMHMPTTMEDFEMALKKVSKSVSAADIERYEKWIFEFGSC
UniProt P41229: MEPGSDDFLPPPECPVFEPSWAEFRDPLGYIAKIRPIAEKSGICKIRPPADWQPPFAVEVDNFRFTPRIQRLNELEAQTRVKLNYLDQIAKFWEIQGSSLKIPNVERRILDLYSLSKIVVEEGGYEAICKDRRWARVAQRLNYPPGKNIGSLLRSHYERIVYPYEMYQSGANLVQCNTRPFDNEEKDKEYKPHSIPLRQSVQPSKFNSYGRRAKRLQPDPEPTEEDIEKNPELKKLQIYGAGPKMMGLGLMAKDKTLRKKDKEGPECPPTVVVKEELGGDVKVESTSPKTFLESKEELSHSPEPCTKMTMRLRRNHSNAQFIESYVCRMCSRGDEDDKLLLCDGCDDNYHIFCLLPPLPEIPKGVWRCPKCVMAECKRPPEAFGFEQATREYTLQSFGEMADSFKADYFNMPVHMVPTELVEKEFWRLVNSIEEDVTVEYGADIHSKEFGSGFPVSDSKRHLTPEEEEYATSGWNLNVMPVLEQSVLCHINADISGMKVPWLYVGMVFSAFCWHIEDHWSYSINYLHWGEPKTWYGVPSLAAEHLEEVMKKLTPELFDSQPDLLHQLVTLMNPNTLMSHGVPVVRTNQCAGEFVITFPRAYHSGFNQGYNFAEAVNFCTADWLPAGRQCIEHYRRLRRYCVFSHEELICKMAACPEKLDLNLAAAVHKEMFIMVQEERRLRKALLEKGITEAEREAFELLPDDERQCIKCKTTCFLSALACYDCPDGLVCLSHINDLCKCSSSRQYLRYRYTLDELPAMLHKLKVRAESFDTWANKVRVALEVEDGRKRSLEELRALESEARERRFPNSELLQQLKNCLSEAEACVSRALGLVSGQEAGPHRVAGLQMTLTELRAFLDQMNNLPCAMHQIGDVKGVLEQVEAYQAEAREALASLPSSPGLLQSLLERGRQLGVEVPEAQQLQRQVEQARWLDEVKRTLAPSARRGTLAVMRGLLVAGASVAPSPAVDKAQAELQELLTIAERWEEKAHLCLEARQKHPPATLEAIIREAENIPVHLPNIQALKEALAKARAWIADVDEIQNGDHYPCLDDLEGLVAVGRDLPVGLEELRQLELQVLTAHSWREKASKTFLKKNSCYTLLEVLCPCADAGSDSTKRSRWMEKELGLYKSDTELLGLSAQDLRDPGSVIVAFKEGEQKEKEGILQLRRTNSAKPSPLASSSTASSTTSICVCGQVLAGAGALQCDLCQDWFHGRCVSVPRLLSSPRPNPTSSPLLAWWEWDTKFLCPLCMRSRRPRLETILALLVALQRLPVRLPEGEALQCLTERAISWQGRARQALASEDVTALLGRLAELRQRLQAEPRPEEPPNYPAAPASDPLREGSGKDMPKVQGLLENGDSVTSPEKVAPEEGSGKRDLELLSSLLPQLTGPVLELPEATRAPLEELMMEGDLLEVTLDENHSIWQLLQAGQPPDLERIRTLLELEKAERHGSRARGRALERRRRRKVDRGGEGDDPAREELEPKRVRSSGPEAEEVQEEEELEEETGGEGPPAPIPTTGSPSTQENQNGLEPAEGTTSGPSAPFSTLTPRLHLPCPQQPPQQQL
UniProt P50053: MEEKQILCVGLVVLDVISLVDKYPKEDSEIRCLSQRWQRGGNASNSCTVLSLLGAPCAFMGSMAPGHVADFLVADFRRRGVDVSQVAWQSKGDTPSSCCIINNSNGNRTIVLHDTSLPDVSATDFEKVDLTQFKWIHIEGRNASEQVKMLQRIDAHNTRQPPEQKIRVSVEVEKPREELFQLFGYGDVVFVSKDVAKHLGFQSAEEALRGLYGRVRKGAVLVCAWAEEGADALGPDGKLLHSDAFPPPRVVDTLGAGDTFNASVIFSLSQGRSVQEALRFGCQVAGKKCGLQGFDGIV
UniProt P33176: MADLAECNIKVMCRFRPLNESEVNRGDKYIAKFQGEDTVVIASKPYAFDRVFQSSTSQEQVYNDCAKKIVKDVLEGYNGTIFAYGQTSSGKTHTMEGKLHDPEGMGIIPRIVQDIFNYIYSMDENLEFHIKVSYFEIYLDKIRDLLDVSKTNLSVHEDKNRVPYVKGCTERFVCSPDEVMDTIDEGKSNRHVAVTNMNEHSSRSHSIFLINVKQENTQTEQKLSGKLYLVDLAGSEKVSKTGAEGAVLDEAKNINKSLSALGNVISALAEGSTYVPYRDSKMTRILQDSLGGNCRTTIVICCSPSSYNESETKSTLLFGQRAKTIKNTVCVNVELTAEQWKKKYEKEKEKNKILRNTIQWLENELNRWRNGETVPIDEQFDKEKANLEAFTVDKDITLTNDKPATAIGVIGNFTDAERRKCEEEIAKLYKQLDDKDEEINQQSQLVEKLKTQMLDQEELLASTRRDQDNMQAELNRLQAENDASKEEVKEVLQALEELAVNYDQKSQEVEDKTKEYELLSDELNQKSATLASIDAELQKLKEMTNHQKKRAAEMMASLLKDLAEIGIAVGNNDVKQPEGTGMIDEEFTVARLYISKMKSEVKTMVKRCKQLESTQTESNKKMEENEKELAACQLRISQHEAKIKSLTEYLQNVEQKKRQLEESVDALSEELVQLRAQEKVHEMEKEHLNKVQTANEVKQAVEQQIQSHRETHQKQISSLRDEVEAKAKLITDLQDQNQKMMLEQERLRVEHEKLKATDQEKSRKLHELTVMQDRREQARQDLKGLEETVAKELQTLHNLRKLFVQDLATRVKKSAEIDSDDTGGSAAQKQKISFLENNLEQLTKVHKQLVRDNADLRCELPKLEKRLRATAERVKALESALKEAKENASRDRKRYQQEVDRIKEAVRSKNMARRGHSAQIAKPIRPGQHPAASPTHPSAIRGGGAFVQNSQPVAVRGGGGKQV
UniProt Q8IZA0: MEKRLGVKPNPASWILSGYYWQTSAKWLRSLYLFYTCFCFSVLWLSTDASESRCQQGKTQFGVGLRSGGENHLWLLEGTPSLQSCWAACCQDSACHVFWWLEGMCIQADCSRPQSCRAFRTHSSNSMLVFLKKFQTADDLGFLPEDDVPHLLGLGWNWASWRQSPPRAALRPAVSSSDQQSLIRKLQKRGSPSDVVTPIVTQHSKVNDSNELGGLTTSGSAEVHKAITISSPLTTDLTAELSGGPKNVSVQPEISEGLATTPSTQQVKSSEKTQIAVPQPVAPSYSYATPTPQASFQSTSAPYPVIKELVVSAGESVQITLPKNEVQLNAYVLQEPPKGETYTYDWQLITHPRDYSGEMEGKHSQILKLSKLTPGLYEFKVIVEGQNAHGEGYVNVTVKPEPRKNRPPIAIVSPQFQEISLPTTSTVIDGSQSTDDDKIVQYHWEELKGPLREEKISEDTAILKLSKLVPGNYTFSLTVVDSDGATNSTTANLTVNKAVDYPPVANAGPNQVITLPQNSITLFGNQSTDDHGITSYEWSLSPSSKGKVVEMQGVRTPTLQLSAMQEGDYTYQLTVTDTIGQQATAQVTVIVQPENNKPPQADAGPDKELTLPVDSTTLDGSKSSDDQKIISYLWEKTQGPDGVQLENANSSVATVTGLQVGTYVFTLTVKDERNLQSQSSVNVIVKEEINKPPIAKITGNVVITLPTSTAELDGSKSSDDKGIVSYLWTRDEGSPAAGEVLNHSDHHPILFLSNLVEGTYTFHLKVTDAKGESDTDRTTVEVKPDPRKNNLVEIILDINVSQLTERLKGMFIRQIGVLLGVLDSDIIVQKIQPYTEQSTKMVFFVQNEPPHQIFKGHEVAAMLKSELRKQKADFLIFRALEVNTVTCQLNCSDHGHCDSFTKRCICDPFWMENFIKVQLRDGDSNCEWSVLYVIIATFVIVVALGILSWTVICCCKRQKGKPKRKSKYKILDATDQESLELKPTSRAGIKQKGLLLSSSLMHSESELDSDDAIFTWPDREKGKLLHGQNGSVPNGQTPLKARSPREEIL

Assays:
Assay in all cases: log2 fold change, soluble protein after heating vs DMSO (PISA); higher = thermal stabilisation; K562 cells, 10 uM, 30 min; active = over 0.2 and 3.5 SD of the protein, either way, in both replicates (recomputed)
[1] = compound: CC[C@@H]1C(=O)N(C)c2cnc(Nc3ccc(C(=O)NC4CCN(C)CC4)cc3OC)nc2N1C1CCCC1
Procedure, shortened: (§1)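 Soluble protein was defined as the supernatant after 21,000xg for 90 min. It came from K562 cells at 2×10^6 cells/mL given 10 μM compound for 30 min, heated in aliquots for 3 min across 48°C-58°C, pooled, and extracted in PBS with 0.5% NP-40 at 4°C, and was quantified by TMTpro 16plex LC-MS/MS with equalised channel sums. Thermal stability against control samples, from duplicates, is reported as log2 fold change.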

volasertib = compound: CC[C@@H]1C(=O)N(C)c2cnc(Nc3ccc(C(=O)N[C@H]4CC[C@H](N5CCN(CC6CC6)CC5)CC4)cc3OC)nc2N1C(C)C [volasertib]
Procedure, shortened: as §1

[2] = compound: CC[C@H](C)N1C=C(C2=C(C=C(C=C21)C3=CN=C(C=C3)N4CCNCC4)C(=O)NCC5=C(C=C(NC5=O)C)C)C
Procedure, shortened: as §1

epoxomicin = compound: CC[C@H](C)[C@@H](C(=O)N[C@@H]([C@@H](C)O)C(=O)N[C@@H](CC(C)C)C(=O)[C@]1(CO1)C)NC(=O)[C@H]([C@@H](C)CC)N(C)C(=O)C [epoxomicin]
Procedure, shortened: as §1

[3] = compound: CCn1c(C(=O)N(C2CC2)C2CC2)cc2c3c(ncn3C)c(Nc3cc(C)n(C)n3)nc21
Procedure, shortened: as §1

[4] = compound: CCn1cc(-c2ccnc3[nH]c(-c4cccc(CN(C)C)c4)cc23)c(-c2ccc(NC(=O)N(C)C)cc2)n1
Procedure, shortened: as §1

[5] = compound: CN(C)CC(=O)Nc1ccc2[nH]c(=O)c3ccccc3c2c1
Procedure, shortened: as §1

rosiglitazone = compound: CN(CCOC1=CC=C(C=C1)C[C@H]2C(=O)NC(=O)S2)C3=CC=CC=N3 (racemic) [rosiglitazone]
Procedure, shortened: as §1

[6] = compound: CN1C2=C(C3=C1C(=O)N(N=C3)CC4=CC(=CC=C4)N)SC(=C2)S(=O)C
Procedure, shortened: as §1

[7] = compound: CN1CCC(CNc2ccc3ncc(-c4cccc(OC(F)(F)F)c4)n3n2)CC1
Procedure, shortened: as §1

saracatinib = compound: CN1CCN(CCOc2cc(OC3CCOCC3)c3c(Nc4c(Cl)ccc5c4OCO5)ncnc3c2)CC1 [saracatinib]
Procedure, shortened: as §1

sotrastaurin = compound: CN1CCN(c2nc(C3=C(c4c[nH]c5ccccc45)C(=O)NC3=O)c3ccccc3n2)CC1 [sotrastaurin]
Procedure, shortened: as §1

alvocidib = compound: CN1CC[C@H](c2c(O)cc(O)c3c(=O)cc(-c4ccccc4Cl)oc23)[C@H](O)C1 [alvocidib]
Procedure, shortened: as §1

Tubastatin A = compound: CN1CCc2c(c3ccccc3n2Cc2ccc(C(=O)NO)cc2)C1 [Tubastatin A]
Procedure, shortened: as §1

[8] = compound: CNC(=O)C1=CC=CC=C1NC2=NC(=NC=C2Cl)NC3=C(C=C(C=C3)N4CCOCC4)OC
Procedure, shortened: as §1

defactinib = compound: CNC(=O)c1ccc(Nc2ncc(C(F)(F)F)c(NCc3nccnc3N(C)S(C)(=O)=O)n2)cc1 [defactinib]
Procedure, shortened: as §1

rucaparib = compound: CNCc1ccc(-c2[nH]c3cc(F)cc4c3c2CCNC4=O)cc1 [rucaparib]
Procedure, shortened: as §1

[9] = compound: CNc1nc(-c2ccc3c(N)n[nH]c3c2)cc(N2C[C@@H](C(=O)NC3CCCCC3)CC[C@H]2C)n1
Procedure, shortened: as §1

encorafenib = compound: COC(=O)N[C@@H](C)CNc1nccc(-c2cn(C(C)C)nc2-c2cc(Cl)cc(NS(C)(=O)=O)c2F)n1 [encorafenib]
Procedure, shortened: as §1

[10] = compound: COC(=O)[C@H](CCSC)NC(=O)C1=C(C=C(C=C1)NC[C@H](CS)N)C2=CC=CC=C2
Procedure, shortened: as §1

Measured: log2 fold change

KDM2A (UniProt Q9Y2K7)
inactive: [1] -0.145 | volasertib -0.167 | [2] -0.153 | epoxomicin -0.098 | [3] -0.058 | [4] 0 | [5] -0.069 | rosiglitazone -0.004 | [6] 0.028 | [7] -0.089 | saracatinib 0.006 | sotrastaurin -0.168 | alvocidib -0.193 | Tubastatin A -0.014 | [8] 0.028 | defactinib -0.097 | rucaparib -0.094 | [9] 0.063 | encorafenib 0.039 | [10] 0.034

KPNA2 (UniProt P52292)
inactive: [1] 0.133 | volasertib -0.038 | [2] 0.067 | epoxomicin -0.235 | [3] -0.041 | [4] -0.101 | [5] 0.005 | rosiglitazone -0.059 | [6] 0.351 | [7] 0.049 | saracatinib -0.152 | sotrastaurin -0.077 | alvocidib 0.196 | Tubastatin A 0.108 | [8] -0.005 | defactinib 0.187 | rucaparib 0.338 | [9] 0.06 | encorafenib 0.196 | [10] -0.068

KMT2D isoform 3 (UniProt O14686)
inactive: [1] 0.151 | volasertib -0.068 | [2] 0.024 | epoxomicin 0.009 | [3] -0.04 | [4] 0.029 | [5] -0.119 | rosiglitazone -0.009 | [6] 0.093 | [7] 0.007 | saracatinib -0.072 | sotrastaurin -0.073 | alvocidib -0.071 | Tubastatin A -0.13 | [8] 0.033 | defactinib -0.03 | rucaparib 0.232 | [9] 0.081 | encorafenib 0.036 | [10] -0.105

KIAA1522 isoform 2 (UniProt Q9P206)
inactive: [1] 0.108 | volasertib -0.033 | [2] -0.028 | epoxomicin -0.112 | [3] -0.015 | [4] 0.032 | [5] -0.087 | rosiglitazone 0.053 | [6] 0.119 | [7] -0.056 | saracatinib 0.002 | sotrastaurin -0.112 | alvocidib -0.039 | Tubastatin A 0.165 | [8] -0.009 | defactinib 0.092 | rucaparib 0.157 | [9] -0.082 | encorafenib 0.033 | [10] 0.003

KDSR (UniProt Q06136)
inactive: [1] 0.045 | volasertib 0.055 | [2] -0.054 | epoxomicin 0.041 | [3] 0.002 | [4] -0.008 | [5] -0.005 | rosiglitazone 0.016 | [6] -0.003 | [7] 0.127 | saracatinib 0.149 | sotrastaurin -0.006 | alvocidib -0.028 | Tubastatin A -0.003 | [8] -0.027 | defactinib -0.004 | rucaparib -0.017 | [9] 0.005 | encorafenib 0.005 | [10] -0.018

2 consecutive records already listed, quoted:
KIAA1522 isoform 2 (UniProt Q9P206)
inactive: [1] 0.108 | volasertib -0.033 | [2] -0.028 | epoxomicin -0.112 | [3] -0.015 | [4] 0.032 | [5] -0.087 | rosiglitazone 0.053 | [6] 0.119 | [7] -0.056 | saracatinib 0.002 | sotrastaurin -0.112 | alvocidib -0.039 | Tubastatin A 0.165 | [8] -0.009 | defactinib 0.092 | rucaparib 0.157 | [9] -0.082 | encorafenib 0.033 | [10] 0.003

KDSR (UniProt Q06136)
inactive: [1] 0.045 | volasertib 0.055 | [2] -0.054 | epoxomicin 0.041 | [3] 0.002 | [4] -0.008 | [5] -0.005 | rosiglitazone 0.016 | [6] -0.003 | [7] 0.127 | saracatinib 0.149 | sotrastaurin -0.006 | alvocidib -0.028 | Tubastatin A -0.003 | [8] -0.027 | defactinib -0.004 | rucaparib -0.017 | [9] 0.005 | encorafenib 0.005 | [10] -0.018

Next records follow.

KIAA1143 (UniProt Q96AT1)
inactive: [1] -0.006 | volasertib 0.09 | [2] -0.042 | epoxomicin -0.059 | [3] -0.004 | [4] -0.048 | [5] -0.043 | rosiglitazone -0.018 | [6] -0.019 | [7] -0.107 | saracatinib -0.055 | sotrastaurin 0.111 | alvocidib 0.082 | Tubastatin A -0.002 | [8] -0.056 | defactinib 0.026 | rucaparib 0.055 | [9] -0.043 | encorafenib -0.072 | [10] 0.051

KARS1 (UniProt Q15046)
inactive: [1] 0.135 | volasertib 0.137 | [2] -0.054 | epoxomicin -0.204 | [3] 0.012 | [4] 0.107 | [5] -0.049 | rosiglitazone -0.09 | [6] 0.144 | [7] 0.33 | saracatinib -0.017 | sotrastaurin 0.026 | alvocidib 0.139 | Tubastatin A 0 | [8] 0.003 | defactinib 0.144 | rucaparib 0.267 | [9] -0.018 | encorafenib 0.051 | [10] 0.033

KCTD15 (UniProt Q96SI1)
inactive: [1] 0.099 | volasertib 0.038 | [2] 0.019 | epoxomicin 0.088 | [3] -0.002 | [4] 0.016 | [5] -0.008 | rosiglitazone -0.028 | [6] -0.012 | [7] -0.04 | saracatinib 0.008 | sotrastaurin 0.122 | alvocidib 0.086 | Tubastatin A -0.05 | [8] -0.004 | defactinib 0.015 | rucaparib -0.04 | [9] -0.045 | encorafenib -0.009 | [10] 0.018

JPT2 isoform 3 (UniProt Q9H910)
inactive: [1] -0.008 | volasertib 0.112 | [2] -0.029 | epoxomicin 0.014 | [3] 0.048 | [4] 0.042 | [5] -0.053 | rosiglitazone -0.012 | [6] -0.039 | [7] -0.037 | saracatinib 0.002 | sotrastaurin 0.02 | alvocidib 0 | Tubastatin A -0.015 | [8] -0.031 | defactinib -0.008 | rucaparib -0.003 | [9] -0.019 | encorafenib -0.024 | [10] 0.063

KIF23 (UniProt Q02241)
inactive: [1] -0.119 | volasertib 0.003 | [2] 0.009 | epoxomicin 0.051 | [3] -0.084 | [4] 0.053 | [5] -0.04 | rosiglitazone 0.091 | [6] 0.111 | [7] 0.064 | saracatinib 0.112 | sotrastaurin -0.097 | alvocidib -0.229 | Tubastatin A -0.032 | [8] -0.177 | defactinib -0.054 | rucaparib 0.129 | [9] -0.036 | encorafenib 0.091 | [10] 0.048

KATNA1 (UniProt O75449)
inactive: [1] 0.14 | volasertib -0.078 | [2] -0.06 | epoxomicin -0.048 | [3] 0.023 | [4] -0.029 | [5] -0.018 | rosiglitazone 0.089 | [6] -0.003 | [7] 0.052 | saracatinib 0.076 | sotrastaurin -0.019 | alvocidib -0.046 | Tubastatin A -0.041 | [8] 0.048 | defactinib 0.025 | rucaparib -0.024 | [9] -0.029 | encorafenib 0.007 | [10] -0.033

KDM5C (UniProt P41229)
inactive: [1] -0.048 | volasertib -0.332 | [2] 0.25 | epoxomicin 0.075 | [3] 0 | [4] -0.041 | [5] 0.018 | rosiglitazone 0.005 | [6] -0.044 | [7] -0.197 | saracatinib 0.086 | sotrastaurin -0.098 | alvocidib -0.097 | Tubastatin A -0.201 | [8] 0.123 | defactinib -0.172 | rucaparib -0.009 | [9] -0.015 | encorafenib 0.151 | [10] -0.162

KHK isoform 2 (UniProt P50053)
inactive: [1] -0.026 | volasertib 0.021 | [2] -0.027 | epoxomicin 0.001 | [3] -0.028 | [4] -0.027 | [5] -0.055 | rosiglitazone -0.052 | [6] 0.002 | [7] -0.092 | saracatinib 0.026 | sotrastaurin 0.026 | alvocidib -0.006 | Tubastatin A -0.036 | [8] 0.016 | defactinib 0.006 | rucaparib -0.053 | [9] -0.009 | encorafenib 0.04 | [10] 0.012

KIF5B (UniProt P33176)
inactive: [1] -0.006 | volasertib 0.033 | [2] 0.051 | epoxomicin 0.051 | [3] -0.008 | [4] -0.052 | [5] 0.028 | rosiglitazone 0.017 | [6] -0.046 | [7] -0.011 | saracatinib 0.014 | sotrastaurin 0.016 | alvocidib -0.06 | Tubastatin A -0.01 | [8] -0.002 | defactinib -0.022 | rucaparib -0.019 | [9] 0.015 | encorafenib 0.014 | [10] -0.011

KIAA0319L (UniProt Q8IZA0)
inactive: [1] -0.044 | volasertib -0.11 | [2] -0.039 | epoxomicin 0.003 | [3] 0.054 | [4] 0.027 | [5] -0.016 | rosiglitazone -0.012 | [6] -0.003 | [7] -0.194 | saracatinib 0.014 | sotrastaurin 0.054 | alvocidib -0.018 | Tubastatin A -0.018 | [8] 0.01 | defactinib -0.024 | rucaparib -0.011 | [9] -0.027 | encorafenib -0.029 | [10] 0.004

KAZN isoform 3 (UniProt Q674X7)
inactive: [1] 0.051 | volasertib 0.061 | [2] 0.03 | epoxomicin 0.013 | [3] -0.07 | [4] 0.003 | [5] 0.003 | rosiglitazone -0.057 | [6] 0.007 | [7] 0.017 | saracatinib 0.037 | sotrastaurin -0.012 | alvocidib -0.011 | Tubastatin A 0.023 | [8] 0.004 | defactinib -0.084 | rucaparib -0.11 | [9] -0.096 | encorafenib -0.01 | [10] 0.058
